The target in assay [1] is T1, recombinant human Tyro3/Dtk-Fc chimera (rhTyro3/Dtk-Fc; R&D Systems, Cat no. 859-DK) (human) (UniProt Q06418).
T1 sequence: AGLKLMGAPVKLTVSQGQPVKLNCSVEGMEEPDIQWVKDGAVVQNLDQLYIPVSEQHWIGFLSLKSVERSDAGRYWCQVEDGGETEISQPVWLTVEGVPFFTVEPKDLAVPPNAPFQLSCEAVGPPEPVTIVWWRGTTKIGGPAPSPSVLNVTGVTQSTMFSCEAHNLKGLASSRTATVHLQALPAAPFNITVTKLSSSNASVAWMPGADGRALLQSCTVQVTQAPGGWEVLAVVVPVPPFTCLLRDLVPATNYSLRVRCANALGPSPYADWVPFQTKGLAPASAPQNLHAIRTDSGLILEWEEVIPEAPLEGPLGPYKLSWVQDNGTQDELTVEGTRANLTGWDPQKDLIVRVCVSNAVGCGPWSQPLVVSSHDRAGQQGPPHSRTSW
The assay is described as follows: SPR (Biacore 3000), rhTyro3/Dtk-Fc immobilised, rmGas6 10 µg/mL. In general terms: Surface plasmon resonance follows binding to a sensor surface in real time, without labels.

Assay [2] addresses T1, recombinant human Tyro3/Dtk-Fc chimera (rhTyro3/Dtk-Fc; R&D Systems, Cat no. 859-DK) (human). The assay is described as follows: Biacore 3000 SPR, rhTyro3/Dtk-Fc on a CM5 chip, rmGas6 injected at 10 µg/mL for 3 min, 5 min dissociation [lower panel rmGas6].

No constants are given. Whether binding was seen depends on the method and setting. Some results given as binding are weak or reduced against the parent protein; the word gives no strength. Sequences can lack the tags named with a protein.

B1: recombinant mouse Gas6 (rmGas6; R&D Systems, Cat no. 986-GS/CF) (ligand, UniProt Q61592 116-674, looked up)
chain: QCTPNPCDKKGTHICQDLMGNFFCVCTDGWGGRLCDKDVNECVQKNGGCSQVCHNKPGSFQCACHSGFSLASDGQTCQDIDECTDSDTCGDARCKNLPGSYSCLCDEGYTYSSKEKTCQDVDECQQDRCEQTCVNSPGSYTCHCDGRGGLKLSPDMDTCEDILPCVPFSMAKSVKSLYLGRMFSGTPVIRLRFKRLQPTRLLAEFDFRTFDPEGVLFFAGGRSDSTWIVLGLRAGRLELQLRYNGVGRITSSGPTINHGMWQTISVEELERNLVIKVNKDAVMKIAVAGELFQLERGLYHLNLTVGGIPFKESELVQPINPRLDGCMRSWNWLNGEDSAIQETVKANTKMQCFSVTERGSFFPGNGFATYRLNYTRTSLDVGTETTWEVKVVARIRPATDTGVLLALVGDDDVVPISVALVDYHSTKKLKKQLVVLAVEDVALALMEIKVCDSQEHTVTVSLREGEATLEVDGTKGQSEVSTAQLQERLDTLKTHLQGSVHTYVGGLPEVSVISAPVTAFYRGCMTLEVNGKILDLDTASYKHSDITSHSCPPVEHATP
With B1, the binding entry in assay [1] and in assay [2] was “binds” in each case.

The values are drawn from patent publication US20220195054A1 (BERGEN TEKNOLOGIOVERF RING, published 2022).
